Experimental data: PubChem BioAssay AID1053208 (Peter MacCallum Cancer Centre, 2014)
Purpose: 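Synthetic lethal interactions between gene loss and doxorubicin in osteosarcoma cells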 (primary screen). Cell system: mouse osteosarcoma cells, early-passage culture from an engineered mouse model of fibroblastic bone tumour. Reagent: siRNA pool against mouse genes, 40 nM. Duration: about 120 h (48 h before drug, then 72 h with drug). Challenge: doxorubicin 100 nM for 72 h, roughly 30-40% inhibitory dose. Measurement: 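Luminescent ATP signal taken as viability with or without 100 nM doxorubicin for 72 h; mean of two wells set against non-targeting siRNA and turned into robust z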. Direction: viability z-score with doxorubicin: higher = more viable cells under doxorubicin; viability z-score without drug: higher = more viable cells with knock-down alone. Active means: 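a pool counts as active when its viability z-score with doxorubicin is -2 or below and its z-score without drug lies between -2 and 2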.
This is one part, drawn at random, of about 17,000 reagents tested. 788 of them (4.7%) count as active. 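Calls rest on z-score classes alone; an extra cut-off of viability at most 70% of control was not applied to them.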 Further read-outs or replicates are left out here.

Calr3 (GeneID 73316) [SID152301467] showed combined z-score class no change with or without drug; viability z-score with doxorubicin 0.45; viability z-score without drug -0.34; inactive.
Depletion of Calhm6 (GeneID 215900) [SID152275826] came out at: combined z-score class no change with or without drug; viability z-score with doxorubicin 0.11; viability z-score without drug 1.18; inactive.
Arhgef38 (GeneID 77669) [SID152265741] gave combined z-score class no change with or without drug; viability z-score with doxorubicin -0.9; viability z-score without drug -0.17; inactive.
Against 4930433I11Rik (GeneID 243944) [SID152314306], the entry reads combined z-score class high cell count without drug only; viability z-score with doxorubicin -1.12; viability z-score without drug 2.53; inactive.
For Or4k40 (GeneID 277562) [SID152320724] the deposit lists combined z-score class no change with or without drug; viability z-score with doxorubicin -0.11; viability z-score without drug -0.51; inactive.
Atg3 (GeneID 67841) [SID152337511] scored combined z-score class low cell count without drug only; viability z-score with doxorubicin 1.35; viability z-score without drug -3.54; inactive.
Ints7 (GeneID 77065) [SID152279543] gave combined z-score class no change with or without drug; viability z-score with doxorubicin -1.69; viability z-score without drug 0.17; inactive.
Cck (GeneID 12424) [SID152341918] scored combined z-score class no change with or without drug; viability z-score with doxorubicin 0.45; viability z-score without drug -0.34; inactive.
Ppip5k2 (GeneID 227399) [SID152301873] scored combined z-score class no change with or without drug; viability z-score with doxorubicin -1.91; viability z-score without drug -1.18; inactive.
Arpin (GeneID 70420) [SID152284329] gave combined z-score class no change with or without drug; viability z-score with doxorubicin 0.67; viability z-score without drug 1.52; inactive.
For Mageb3 (GeneID 17147) [SID152311398] the deposit lists combined z-score class no change with or without drug; viability z-score with doxorubicin 0; viability z-score without drug -1.52; inactive.
After knock-down of Treh (GeneID 58866) [SID152342171], the screen gave combined z-score class no change with or without drug; viability z-score with doxorubicin -0.67; viability z-score without drug 0.51; inactive.

2 entries already listed, ordered by “viability z-score with doxorubicin”, low to high:
Ints7 (GeneID 77065) [SID152279543] | combined z-score class: no change with or without drug; viability z-score with doxorubicin: -1.69; viability z-score without drug: 0.17; call: inactive
Atg3 (GeneID 67841) [SID152337511] | combined z-score class: low cell count without drug only; viability z-score with doxorubicin: 1.35; viability z-score without drug: -3.54; call: inactive
